Counter-ions that a name gives are not always drawn. Some entries share one result that the patent states for a list of compounds.
Assay: Solubility evaluation in aqueous buffer
Assay type: physicochemical
Conditions: comparison with Compound A, Table 1 data
Description: The solid powder of an individual prodrug was equilibrated in aqueous buffers of pH 1, 4 and 6.5 at 25° C. for about 24 hours. After equilibration, the excess solid was separated by filtration using 0.45 μm membrane filter and the filtrate was collected in suitable glass vial. The filtrate was diluted appropriately using respective buffers/diluent and analyzed by a reversed phase LC method with UV detection.

Cc1c(-c2c(C(C)C)c3cc(C4CCN(CC(N)=O)CC4)ccc3n2C(=O)OC(C)OC(=O)C2(N)CC2)cn2ncnc2c1C (single isomer, unassigned) [Example 7, 1-((1-Aminocyclopropane-1-carbonyl)oxy)ethyl 5-(1-(2-amino-2-oxoethyl)piperidin-4-yl)-2-(7,8-dimethyl-[1,2,4]triazolo[1,5-a]pyridin-6-yl)-3-isopropyl-1H-indole-1-carboxylate ditrifluoroacetate]
solubility at pH 4 and/or pH 6.5 compared with Compound A: greater solubility at pH 4 and/or pH 6.5 than Compound A

Cc1c(-c2[nH]c3ccc(C4CCN(CC(N)=O)CC4)cc3c2C(C)C)cn2nc[n+](COP(=O)(O)O)c2c1C (single isomer, unassigned) [Example 8, 6-(5-(1-(2-Amino-2-oxoethyl)piperidin-4-yl)-3-isopropyl-1H-indol-2-yl)-7,8-dimethyl-1-((phosphonooxy)methyl)-[1,2,4]triazolo[1,5-a]pyridin-1-ium trifluoroacetate]
solubility at pH 4 and/or pH 6.5 compared with Compound A: greater solubility at pH 4 and/or pH 6.5 than Compound A

Cc1c(-c2c(C(C)C)c3cc(C4CCN(CC(N)=O)CC4)ccc3n2C(=O)OC[C@@H]2CCCCN2C(=O)OCOP(=O)(O)O)cn2ncnc2c1C [Example 2, (S)-(1-(((Phosphonooxy)methoxy)carbonyl)piperidin-2-yl)methyl 5-(1-(2-amino-2-oxoethyl)piperidin-4-yl)-2-(7,8-dimethyl-[1,2,4]triazolo[1,5-a]pyridin-6-yl)-3-isopropyl-1H-indole-1-carboxylate]
solubility at pH 4 and/or pH 6.5 compared with Compound A: greater solubility at pH 4 and/or pH 6.5 than Compound A

Cc1c(-c2[nH]c3ccc(C4CC[N+](COP(=O)(O)O)(CC(N)=O)CC4)cc3c2C(C)C)cn2ncnc2c1C (single isomer, unassigned) [Example 9, 1-(2-Amino-2-oxoethyl)-4-(2-(7,8-dimethyl-[1,2,4]triazolo[1,5-a]pyridin-6-yl)-3-isopropyl-1H-indol-5-yl)-1-((phosphonooxy)methyl)piperidin-1-ium trifluoroacetate]
solubility at pH 4 and/or pH 6.5 compared with Compound A: greater solubility at pH 4 and/or pH 6.5 than Compound A

Cc1c(-c2c(C(C)C)c3cc(C4CCN(CC(N)=O)CC4)ccc3n2C(=O)CCCOP(=O)(O)O)cn2ncnc2c1C [Example 10, 4-(5-(1-(2-Amino-2-oxoethyl)piperidin-4-yl)-2-(7,8-dimethyl-[1,2,4]triazolo[1,5-a]pyridin-6-yl)-3-isopropyl-1H-indol-1-yl)-4-oxobutyl dihydrogen phosphate]
solubility at pH 4 and/or pH 6.5 compared with Compound A: greater solubility at pH 4 and/or pH 6.5 than Compound A

CNCC(=O)n1c(-c2cn3ncnc3c(C)c2C)c(C(C)C)c2cc(C3CCN(CC(N)=O)CC3)ccc21 [Example 5, 2-(4-(2-(7,8-Dimethyl-[1,2,4]triazolo[1,5-a]pyridin-6-yl)-3-isopropyl-1-(methylglycyl)-1H-indol-5-yl)piperidin-1-yl)acetamide ditrifluoroacetate]
solubility at pH 4 and/or pH 6.5 compared with Compound A: greater solubility at pH 4 and/or pH 6.5 than Compound A

Cc1c(-c2c(C(C)C)c3cc(C4CCN(CC(N)=O)CC4)ccc3n2C(=O)OC[C@@H]2CCCN2C(=O)OCOP(=O)(O)O)cn2ncnc2c1C [Example 4, (S)-(1-(((Phosphonooxy)methoxy)carbonyl)pyrrolidin-2-yl)methyl 5-(1-(2-amino-2-oxoethyl)piperidin-4-yl)-2-(7,8-dimethyl-[1,2,4]triazolo[1,5-a]pyridin-6-yl)-3-isopropyl-1H-indole-1-carboxylate]
solubility at pH 4 and/or pH 6.5 compared with Compound A: greater solubility at pH 4 and/or pH 6.5 than Compound A

Cc1c(-c2c(C(C)C)c3cc(C4CCN(CC(N)=O)CC4)ccc3n2C(=O)OCOC(=O)C2(N)CC2)cn2ncnc2c1C [Example 15, ((1-Aminocyclopropane-1-carbonyl)oxy)methyl 5-(1-(2-amino-2-oxoethyl)piperidin-4-yl)-2-(7,8-dimethyl-[1,2,4]triazolo[1,5-a]pyridin-6-yl)-3-isopropyl-1H-indole-1-carboxylate trifluoroacetate]
solubility at pH 4 and/or pH 6.5 compared with Compound A: greater solubility at pH 4 and/or pH 6.5 than Compound A

Cc1c(-c2c(C(C)C)c3cc(C4CCN(CC(N)=O)CC4)ccc3n2SC[C@H](N)C(=O)O)cn2ncnc2c1C [Example 11, S-(5-(1-(2-Amino-2-oxoethyl)piperidin-4-yl)-2-(7,8-dimethyl-[1,2,4]triazolo[1,5-a]pyridin-6-yl)-3-isopropyl-1H-indol-1-yl)-L-cysteine]
solubility at pH 4 and/or pH 6.5 compared with Compound A: greater solubility at pH 4 and/or pH 6.5 than Compound A

Cc1c(-c2c(C(C)C)c3cc(C4CCN(CC(N)=O)CC4)ccc3n2CO)cn2ncnc2c1C [Example 25, 2-(4-(2-(7,8-Dimethyl-[1,2,4]triazolo[1,5-a]pyridin-6-yl)-1-(hydroxymethyl)-3-isopropyl-1H-indol-5-yl)piperidin-1-yl)acetamide]
solubility at pH 4 and/or pH 6.5 compared with Compound A: greater solubility at pH 4 and/or pH 6.5 than Compound A

Cc1c(-c2c(C(C)C)c3cc(C4CCN(CC(N)=O)CC4)ccc3n2C(=O)OC[C@@H]2CCCCN2)cn2ncnc2c1C [Example 1, (S)-Piperidin-2-ylmethyl 5-(1-(2-amino-2-oxoethyl)piperidin-4-yl)-2-(7,8-dimethyl-[1,2,4]triazolo[1,5-a]pyridin-6-yl)-3-isopropyl-1H-indole-1-carboxylate]
solubility at pH 4 and/or pH 6.5 compared with Compound A: greater solubility at pH 4 and/or pH 6.5 than Compound A

CNCCN(C)C(=O)OC[N+]1(CC(N)=O)CCC(c2ccc3[nH]c(-c4cn5ncnc5c(C)c4C)c(C(C)C)c3c2)CC1 (stereo not shown) [Example 23, 1-(2-Amino-2-oxoethyl)-4-(2-(7,8-dimethyl-[1,2,4]triazolo[1,5-a]pyridin-6-yl)-3-isopropyl-1H-indol-5-yl)-1-(((methyl(2-(methylamino)ethyl)carbamoyl)oxy)methyl) piperidin-1-ium trifluoroacetate]
solubility at pH 4 and/or pH 6.5 compared with Compound A: greater solubility at pH 4 and/or pH 6.5 than Compound A

CCOC(=O)n1c(-c2cn3ncnc3c(C)c2C)c(C(C)C)c2cc(C3CCN(CC(N)=O)CC3)ccc21 [Example 24, Ethyl 5-(1-(2-amino-2-oxoethyl)piperidin-4-yl)-2-(7,8-dimethyl-[1,2,4]triazolo[1,5-a]pyridin-6-yl)-3-isopropyl-1H-indole-1-carboxylate]
solubility at pH 4 and/or pH 6.5 compared with Compound A: greater solubility at pH 4 and/or pH 6.5 than Compound A

Cc1c(-c2[nH]c3ccc(C4CC[N+](COC(=O)N(C)CCOP(=O)(O)O)(CC(N)=O)CC4)cc3c2C(C)C)cn2ncnc2c1C (single isomer, unassigned) [Example 20, 1-(2-Amino-2-oxoethyl)-4-(2-(7,8-dimethyl-[1,2,4]triazolo[1,5-a]pyridin-6-yl)-3-isopropyl-1H-indol-5-yl)-1-(((methyl(2-(phosphonooxy)ethyl)carbamoyl)oxy)methyl) piperidin-1-ium trifluoroacetate]
solubility at pH 4 and/or pH 6.5 compared with Compound A: greater solubility at pH 4 and/or pH 6.5 than Compound A

CNCC(=O)OCc1cccnc1N(C)C(=O)OC(C)[N+]1(CC(N)=O)CCC(c2ccc3[nH]c(-c4cn5ncnc5c(C)c4C)c(C(C)C)c3c2)CC1 (stereo not shown) [Example 14, 1-(2-Amino-2-oxoethyl)-4-(2-(7,8-dimethyl-[1,2,4]triazolo[1,5-a]pyridin-6-yl)-3-isopropyl-1H-indol-5-yl)-1-(1-((methyl(3-(((methylglycyl)oxy)methyl)pyridin-2-yl)carbamoyl)oxy)ethyl)piperidin-1-ium ditrifluoroacetate]
solubility at pH 4 and/or pH 6.5 compared with Compound A: greater solubility at pH 4 and/or pH 6.5 than Compound A

Cc1c(-c2c(C(C)C)c3cc(C4CCN(CC(N)=O)CC4)ccc3n2C(=O)OC(C)OC(=O)C2(N)CC2)cn2ncnc2c1C (single isomer, unassigned) [Example 6, 1-((1-Aminocyclopropane-1-carbonyl)oxy)ethyl 5-(1-(2-amino-2-oxoethyl)piperidin-4-yl)-2-(7,8-dimethyl-[1,2,4]triazolo[1,5-a]pyridin-6-yl)-3-isopropyl-1H-indole-1-carboxylate ditrifluoroacetate]
solubility at pH 4 and/or pH 6.5 compared with Compound A: greater solubility at pH 4 and/or pH 6.5 than Compound A

Cc1c(-c2c(C(C)C)c3cc(C4CCN(CC(N)=O)CC4)ccc3n2C(=O)OC[C@@H]2CCCN2)cn2ncnc2c1C [Example 3, (S)-Pyrrolidin-2-ylmethyl 5-(1-(2-amino-2-oxoethyl)piperidin-4-yl)-2-(7,8-dimethyl-[1,2,4]triazolo[1,5-a]pyridin-6-yl)-3-isopropyl-1H-indole-1-carboxylate]
solubility at pH 4 and/or pH 6.5 compared with Compound A: greater solubility at pH 4 and/or pH 6.5 than Compound A

Cc1c(-c2c(C(C)C)c3cc(C4CCN(CC(N)=O)CC4)ccc3n2C(=O)CN(C)C(=O)OCOP(=O)(O)O)cn2ncnc2c1C [Example 19, (Phosphonooxy)methyl (2-(5-(1-(2-amino-2-oxoethyl)piperidin-4-yl)-2-(7,8-dimethyl-[1,2,4]triazolo[1,5-a]pyridin-6-yl)-3-isopropyl-1H-indol-1-yl)-2-oxoethyl)(methyl) carbamate]
solubility at pH 4 and/or pH 6.5 compared with Compound A: greater solubility at pH 4 and/or pH 6.5 than Compound A

Cc1c(-c2[nH]c3ccc(C4CCN(CC(N)=O)CC4)cc3c2C(C)C)cn2nc[n+](COC(=O)N(C)CCOP(=O)(O)O)c2c1C (single isomer, unassigned) [Example 21, 6-(5-(1-(2-amino-2-oxoethyl)piperidin-4-yl)-3-isopropyl-1H-indol-2-yl)-7,8-dimethyl-1-(((methyl(2-(phosphonooxy)ethyl)carbamoyl)oxy)methyl)-[1,2,4]triazolo[1,5-a]pyridin-1-ium trifluoroacetate]
solubility at pH 4 and/or pH 6.5 compared with Compound A: greater solubility at pH 4 and/or pH 6.5 than Compound A
